Article PMC7145602
No constants are given. Whether binding was seen depends on the method and setting. Binding seen in cells or lysates may run through a third protein. Some binding calls cover weakened binding; strength is not graded here. Where a sequence is shown, tags or fusion partners need not be part of it.

The chains behind the UniProt entries cited, without tags or fusion partners.
UniProt P06730: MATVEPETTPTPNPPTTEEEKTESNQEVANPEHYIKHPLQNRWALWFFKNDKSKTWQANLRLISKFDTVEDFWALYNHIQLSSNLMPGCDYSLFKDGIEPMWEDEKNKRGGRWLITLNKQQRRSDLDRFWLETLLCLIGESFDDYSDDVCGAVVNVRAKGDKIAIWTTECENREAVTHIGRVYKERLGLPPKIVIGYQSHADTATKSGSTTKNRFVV

T1: SBP-GFP-UPF1-(610–914) (pEFh-SBP-GFP-hUPF1-(610–914)) (human) (UniProt Q92900)
T1 sequence: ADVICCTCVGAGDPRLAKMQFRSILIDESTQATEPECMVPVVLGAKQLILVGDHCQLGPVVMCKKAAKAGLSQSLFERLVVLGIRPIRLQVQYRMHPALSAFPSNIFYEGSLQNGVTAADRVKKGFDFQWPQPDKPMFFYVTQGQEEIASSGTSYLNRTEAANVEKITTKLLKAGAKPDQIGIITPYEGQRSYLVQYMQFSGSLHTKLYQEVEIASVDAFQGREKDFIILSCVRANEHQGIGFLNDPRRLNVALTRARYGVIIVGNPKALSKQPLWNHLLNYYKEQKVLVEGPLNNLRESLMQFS

T2: Flag-Regnase-1 (mouse) (UniProt Q5D1E7)
T2 sequence: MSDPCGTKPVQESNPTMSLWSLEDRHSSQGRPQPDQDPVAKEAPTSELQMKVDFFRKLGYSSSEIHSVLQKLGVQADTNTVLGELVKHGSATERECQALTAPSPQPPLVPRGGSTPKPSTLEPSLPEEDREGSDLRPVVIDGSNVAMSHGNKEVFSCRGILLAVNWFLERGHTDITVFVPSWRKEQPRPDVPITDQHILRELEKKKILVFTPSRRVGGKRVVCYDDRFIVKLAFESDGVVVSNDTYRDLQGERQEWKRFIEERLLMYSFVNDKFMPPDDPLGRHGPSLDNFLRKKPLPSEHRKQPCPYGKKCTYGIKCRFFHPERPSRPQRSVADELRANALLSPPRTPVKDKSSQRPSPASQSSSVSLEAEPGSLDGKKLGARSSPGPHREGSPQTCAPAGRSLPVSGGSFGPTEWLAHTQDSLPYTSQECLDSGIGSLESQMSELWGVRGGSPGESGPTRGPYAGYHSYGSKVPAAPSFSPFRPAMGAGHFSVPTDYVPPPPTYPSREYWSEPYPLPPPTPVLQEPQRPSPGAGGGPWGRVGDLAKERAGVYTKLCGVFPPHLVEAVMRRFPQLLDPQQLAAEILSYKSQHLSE

T3: Flag-Regnase-1 K257A/R258A (KRAA) mutant (mouse) (UniProt Q5D1E7)
T3 sequence: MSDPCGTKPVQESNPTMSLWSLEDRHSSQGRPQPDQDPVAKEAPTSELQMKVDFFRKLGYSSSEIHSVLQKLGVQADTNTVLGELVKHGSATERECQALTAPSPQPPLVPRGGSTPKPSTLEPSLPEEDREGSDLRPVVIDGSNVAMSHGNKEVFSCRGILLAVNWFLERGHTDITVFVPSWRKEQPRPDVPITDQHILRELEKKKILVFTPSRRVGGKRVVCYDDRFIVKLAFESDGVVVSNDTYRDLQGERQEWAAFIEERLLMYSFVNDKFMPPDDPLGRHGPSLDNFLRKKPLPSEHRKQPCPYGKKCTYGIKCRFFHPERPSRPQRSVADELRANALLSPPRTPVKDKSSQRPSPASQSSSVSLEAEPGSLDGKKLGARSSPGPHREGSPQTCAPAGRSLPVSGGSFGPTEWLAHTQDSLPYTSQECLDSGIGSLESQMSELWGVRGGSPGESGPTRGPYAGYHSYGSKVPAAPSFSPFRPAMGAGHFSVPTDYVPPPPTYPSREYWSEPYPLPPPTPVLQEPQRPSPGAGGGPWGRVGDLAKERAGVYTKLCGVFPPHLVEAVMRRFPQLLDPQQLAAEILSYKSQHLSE


Columns and labels:
[1] = molecular target: eIF4E (human (endogenous in HeLa)) (UniProt P06730); test: co-IP; anti-CBP80 or anti-eIF4E antibody on protein G magnetic beads, HeLa lysates in RNA IP lysis buffer (0.1% NP-40, 150 mM NaCl, 20 mM Tris-HCl pH 7.5, RNasin), 3 h at 4°C; western blot
[2] = molecular target: T1, SBP-GFP-UPF1-(610–914) (pEFh-SBP-GFP-hUPF1-(610–914)) (human); test: co-IP; anti-GFP antibody on protein G magnetic beads, lysates of transfected HeLa cells (0.1% NP-40, 150 mM NaCl, 10 mM Tris-HCl pH 8.0), 3 h at 4°C; GFP-UPF1 fragments precipitated
Flag-Regnase-1 (mouse) = molecular target: T2, Flag-Regnase-1 (mouse); test: co-IP; anti-Flag antibody on protein G magnetic beads, lysates of transfected HeLa cells (0.1% NP-40, 150 mM NaCl, 10 mM Tris-HCl pH 8.0), 3 h at 4°C; Flag-Regnase-1 precipitated, UPF1 constructs blotted; λ protein phosphatase treatment of lysates and SMG1 knockdown are said to reduce or inhibit the association
[3] = molecular target: T3, Flag-Regnase-1 K257A/R258A (KRAA) mutant (mouse); test: as above

| binding [1] | binding [2] | binding (Flag-Regnase-1 (mouse)) | binding [3] | Binder |
| --- | --- | --- | --- | --- |
| no binding | binds | – | – | Flag-Regnase-1 (protein, UniProt Q5D1E7 1-596) MSDPCGTKPVQESNPTMSLWSLEDRHSSQGRPQPDQDPVAKEAPTSELQMKVDFFRKLGYSSSEIHSVLQKLGVQADTNTVLGELVKHGSATERECQALTAPSPQPPLVPRGGSTPKPSTLEPSLPEEDREGSDLRPVVIDGSNVAMSHGNKEVFSCRGILLAVNWFLERGHTDITVFVPSWRKEQPRPDVPITDQHILRELEKKKILVFTPSRRVGGKRVVCYDDRFIVKLAFESDGVVVSNDTYRDLQGERQEWKRFIEERLLMYSFVNDKFMPPDDPLGRHGPSLDNFLRKKPLPSEHRKQPCPYGKKCTYGIKCRFFHPERPSRPQRSVADELRANALLSPPRTPVKDKSSQRPSPASQSSSVSLEAEPGSLDGKKLGARSSPGPHREGSPQTCAPAGRSLPVSGGSFGPTEWLAHTQDSLPYTSQECLDSGIGSLESQMSELWGVRGGSPGESGPTRGPYAGYHSYGSKVPAAPSFSPFRPAMGAGHFSVPTDYVPPPPTYPSREYWSEPYPLPPPTPVLQEPQRPSPGAGGGPWGRVGDLAKERAGVYTKLCGVFPPHLVEAVMRRFPQLLDPQQLAAEILSYKSQHLSE |
| – | – | binds | no binding | HA-UPF1 wild type (pSR-HA-hUPF1-WT, amino acids 6–1118) (protein, UniProt Q92900-2 6-1118) YGPSSQTLTFLDTEEAELLGADTQGSEFEFTDFTLPSQTQTPPGGPGGPGGGGAGGPGGAGAGAAAGQLDAQVGPEGILQNGAVDDSVAKTSQLLAELNFEEDEEDTYYTKDLPIHACSYCGIHDPACVVYCNTSKKWFCNGRGNTSGSHIVNHLVRAKCKEVTLHKDGPLGETVLECYNCGCRNVFLLGFIPAKADSVVVLLCRQPCASQSSLKDINWDSSQWQPLIQDRCFLSWLVKIPSEQEQLRARQITAQQINKLEELWKENPSATLEDLEKPGVDEEPQHVLLRYEDAYQYQNIFGPLVKLEADYDKKLKESQTQDNITVRWDLGLNKKRIAYFTLPKTDSDMRLMQGDEICLRYKGDLAPLWKGIGHVIKVPDNYGDEIAIELRSSVGAPVEVTHNFQVDFVWKSTSFDRMQSALKTFAVDETSVSGYIYHKLLGHEVEDVIIKCQLPKRFTAQGLPDLNHSQVYAVKTVLQRPLSLIQGPPGTGKTVTSATIVYHLARQGNGPVLVCAPSNIAVDQLTEKIHQTGLKVVRLCAKSREAIDSPVSFLALHNQIRNMDSMPELQKLQQLKDETGELSSADEKRYRALKRTAERELLMNADVICCTCVGAGDPRLAKMQFRSILIDESTQATEPECMVPVVLGAKQLILVGDHCQLGPVVMCKKAAKAGLSQSLFERLVVLGIRPIRLQVQYRMHPALSAFPSNIFYEGSLQNGVTAADRVKKGFDFQWPQPDKPMFFYVTQGQEEIASSGTSYLNRTEAANVEKITTKLLKAGAKPDQIGIITPYEGQRSYLVQYMQFSGSLHTKLYQEVEIASVDAFQGREKDFIILSCVRANEHQGIGFLNDPRRLNVALTRARYGVIIVGNPKALSKQPLWNHLLNYYKEQKVLVEGPLNNLRESLMQFSKPRKLVNTINPGARFMTTAMYDAREAIIPGSVYDRSSQGRPSSMYFQTHDQIGMISAGPSHVAAMNIPIPFNLVMPPMPPPGYFGQANGPAAGRGTPKGKTGRGGRQKNRFGLPGPSQTNLPNSQASQDVASQPFSQGALTQGYISMSQPSQMSQPGLSQPELSQDSYLGDEFKSQIDVALSQDSTYQGERAYQHGGVTGLSQY |
